# Measurements from PubChem BioAssay AID1347076 (National Center for Advancing Translational Sciences (NCATS), 2019).
# About 13,000 (3.2%) of roughly 400,000 compounds were called active. Inconclusive results, whose numbers are uncertain, are shown with a selection of clear calls. Calls follow the shape of the dose curve; as a rule, active = well fitted cell-killing curve with a large enough effect; inconclusive = small, poorly fitted or top-dose-only effect, or effect the other way; inactive = flat fitted curve, though single readings scatter. Where the call is inconclusive, the potency comes from a doubtful curve fit.
# Experiment: qHTS assay for MDR1-selective chemotherapeutics: Primary screen using the drug-selected MDR subline cells KB-V1; also: nearly all actives have a fitted effect of over 60% in size
# Details: KB-V1 MDR cells viability, CellTiter-Glo, 72 h; activity change, negative = cytotoxicity: at 46.1 µM (top of the series)
# How it was run: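 qHTS viability screen in drug-selected KB-V1 MDR cells: 72 h compound treatment at 37 degrees C, ATP luminescence end point.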
# % is scaled to controls: 0 for no effect and ±100 for the full control effect; potency is read from the fitted curve at half-maximal effect.
Compound,Potency,"activity change, negative = cytotoxicity"
Cc1cc(NC(=O)c2ccc(Br)c([N+](=O)[O-])c2)no1,"inconclusive: 18.4 µM [rising, single point]",
COC(=O)c1cc(=O)n(Cc2ccco2)c(=Nc2ccc(F)c(Cl)c2)s1,"inconclusive: 25.9 µM [cytotoxic, partial curve, poor fit]",
CN(C(=O)CSc1nnc(-c2ccco2)n1Cc1ccccc1)C1CCS(=O)(=O)C1 (stereo not drawn),"inconclusive: 20.6 µM [rising, partial curve, poor fit]",
Cc1ccc(C)c(NC(=O)CN(C)C(=O)c2cc(C3CC3)nn2-c2ccccc2)c1,"inconclusive: 20.6 µM [cytotoxic, single point]",
CCc1nc(SCc2cc(=O)c3cc(C)ccc3[nH]2)n[nH]1,"inconclusive: 29.1 µM [rising, single point]",
Cc1ccc2nc(SCc3nnc(-c4ccccc4Br)o3)[nH]c2c1,,inactive: 0%
COc1ccccc1N1CCN(C(=O)CN2C(=O)COc3ccc(S(=O)(=O)N4CCCC4)cc32)CC1,"inconclusive: 13 µM [cytotoxic, partial curve, poor fit]",
COc1cc(C2NCC(c3ccc(Cl)cc3Cl)c3c2[nH]c2ccccc32)cc(OC)c1OC (stereo not drawn),"inconclusive: 29.1 µM [cytotoxic, single point]",
c1ccc(-c2ccc(-c3csc4ncnc(Sc5nnnn5-c5ccccc5)c34)cc2)cc1,,inactive: -4.76%
CCC(CC)C(C(=O)NCc1ccccc1)N1CCN(c2cccc(C)c2C)CC1 (stereo not drawn),"inconclusive: 5.8 µM [cytotoxic, partial curve]",
COc1ccc(C(=O)N/N=C/c2ccc(OC)c(COc3c(F)c(F)cc(F)c3F)c2)cc1,,inactive: -1.07%
COc1ccc(-n2c(C)cc(C(=O)CSc3nnc(-c4cccs4)o3)c2C)cc1,"inconclusive: 7.31 µM [cytotoxic, partial curve, poor fit]",
Cc1ccc(Cn2c(Sc3nnc(C)s3)nc3c2c(=O)[nH]c(=O)n3C)cc1,,inactive: 1.86%
Cn1nnnc1Sc1ncnc2scc(-c3ccc(Cl)cc3)c12,"inconclusive: 29.1 µM [cytotoxic, single point]",
Cc1ccc(NC(=O)c2cnn(-c3ccccc3)c2C)cc1C,"inconclusive: 9.2 µM [cytotoxic, partial curve]",
Cc1ccc(CNC(=O)Cn2c(=O)n(Cc3ccccc3)c(=O)c3sc4ccccc4c32)cc1,"inconclusive: 5.8 µM [rising, full curve]",
N=c1c2c3c(sc2ncn1Nc1ccccc1)CCC3,"inconclusive: 23.1 µM [cytotoxic, partial curve, poor fit]",
CCn1cc(CNC(=O)c2cccc([N+](=O)[O-])c2)cn1,,inactive: -13.9%
N#C/C(=C(/O)CN1CCN(c2ccccc2F)CC1)c1nc(-c2ccc(Cl)cc2)cs1,"inconclusive: 10.3 µM [cytotoxic, partial curve, poor fit]",
Cn1c(=O)n(C)c2cc(N3CCOCC3)c(NC(=O)c3c(F)cccc3F)cc21,,inactive: -24.8%
CN(CC(=O)Nc1c(Cl)cccc1Cl)C(=O)CCC(=O)c1ccccc1,"inconclusive: 18.4 µM [cytotoxic, single point]",
CC(C)C(NC(=O)OCc1ccccc1)C(=O)NC(Cc1c[nH]c2ccccc12)C(=O)O (stereo not drawn),,inactive: 2.31%

Compound,Potency,"activity change, negative = cytotoxicity"
COc1cccc2c1c(NC(=O)Nc1ccc(F)cc1F)nn2C,"inconclusive: 29.1 µM [rising, single point]",
Cc1ccc2[nH]c(=O)c(CN(CC3CCCO3)C(=O)c3cccs3)cc2c1 (stereo not drawn),"inconclusive: 8.2 µM [cytotoxic, partial curve]",
Cc1ccsc1C(=O)N1CCCCCC1(C)C(=O)NCC(C)C (stereo not drawn),,inactive: -7.46%
CCCNC(=O)C[C@@H]1CC[C@H]2NC[C@H](O)COC[C@@H]2O1,,inactive: 9.7%
O=C(CC[C@H]1O[C@@H](n2cnc3c(NC(=O)c4ccccc4)ncnc32)[C@H](O)[C@@H]1O)NCCCN1CCCC1=O,,inactive: 4.42%
CC/C(O)=C1\C(=O)CC(c2ccccc2)CC1=NCCc1c(C)[nH]c2ccc(C)cc12 (stereo not drawn),,inactive: 0%
COc1ccc(COC(=O)C2=C(C)NC(=O)NC2c2ccccc2OC(C)C)cc1 (stereo not drawn),"inconclusive: 9.2 µM [cytotoxic, partial curve]",
CCOC(=O)c1ccc(N2C(=O)c3n[nH]c(-c4ccco4)c3C2c2ccc([N+](=O)[O-])cc2)cc1 (stereo not drawn),"inconclusive: 20.6 µM [cytotoxic, partial curve, poor fit]",
COc1cc(OC)c(NC(=O)Nc2c(C)n(C)n(-c3ccccc3)c2=O)cc1Cl,,inactive: 0%
Cc1ccc(NC(=O)OC(C)N2CCCCC2)cc1NC(=O)OC(C)N1CCCCC1 (stereo not drawn),"inconclusive: 29.1 µM [rising, single point]",
CC1CCCN(S(=O)(=O)c2ccc(S(=O)(=O)N3CCC4(CC3)OCCO4)cc2)C1 (stereo not drawn),"inconclusive: 11.6 µM [cytotoxic, partial curve]",
CCOc1ncccc1C(=O)Nc1ccc2nc(C)sc2c1,"inconclusive: 1.03 µM [cytotoxic, full curve]",
C[C@H](NC(=O)c1nc[nH]c1C(=O)N[C@@H](CCCCN)C(=O)OC(C)(C)C)C(=O)OCc1ccccc1,,inactive: 14.4%
C/C(CC(=O)NC1CCCCC1)=N\NC(=O)COc1ccc(C)cc1Br,,inactive: -5.33%
O=C(Cc1ccccc1F)OCC(=O)N1CCc2ccccc21,,inactive: 2.61%
COc1ccc(CCn2c(C)cc(C(=O)COC(=O)c3ccc(O)cc3O)c2C)cc1,"inconclusive: 29.1 µM [cytotoxic, single point]",
CC(=O)NCCCC(=O)NNC1CC(=O)N(c2cccc(Cl)c2)C1=O (stereo not drawn),,inactive: -1.15%
Cc1ccc(CN2CCN(C3CCN(C(=O)Nc4ccccc4C(F)(F)F)CC3)C(=O)C2=O)cc1,,inactive: 23.2%
O=C(Nc1ccc(Cl)cc1)c1cncs1,"inconclusive: 23.1 µM [rising, single point]",
CC(C)(C)c1[nH]nc2c1C(c1ccoc1)C(C#N)=C(N)O2 (stereo not drawn),"inconclusive: 20.6 µM [rising, partial curve, poor fit]",
Cc1cccc(C(=O)NC(=S)N2CCc3ccccc3C2)c1,"inconclusive: 18.4 µM [cytotoxic, single point]",

# Sorted by count of non-hydrogen atoms (smallest number first): some entries from above
Compound,Potency,"activity change, negative = cytotoxicity"
CC(C)(C)c1[nH]nc2c1C(c1ccoc1)C(C#N)=C(N)O2 (stereo not drawn),"inconclusive: 20.6 µM [rising, partial curve, poor fit]",
O=C(Cc1ccccc1F)OCC(=O)N1CCc2ccccc21,,inactive: 2.61%
c1ccc(-c2ccc(-c3csc4ncnc(Sc5nnnn5-c5ccccc5)c34)cc2)cc1,,inactive: -4.76%
